# From PubChem BioAssay AID1439 (NMMLSC, 2008)
# The chains behind the UniProt entries cited, without tags or fusion partners.
# UniProt P09471, whole entry, looked up: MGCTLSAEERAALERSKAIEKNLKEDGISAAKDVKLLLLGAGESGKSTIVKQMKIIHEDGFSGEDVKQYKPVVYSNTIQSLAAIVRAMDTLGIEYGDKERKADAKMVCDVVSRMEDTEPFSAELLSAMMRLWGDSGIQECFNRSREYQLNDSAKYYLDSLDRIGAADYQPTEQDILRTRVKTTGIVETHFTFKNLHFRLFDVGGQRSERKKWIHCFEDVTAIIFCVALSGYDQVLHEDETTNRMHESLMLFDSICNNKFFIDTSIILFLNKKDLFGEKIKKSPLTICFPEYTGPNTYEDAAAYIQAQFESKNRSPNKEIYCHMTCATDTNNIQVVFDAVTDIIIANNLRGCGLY
# Out of some 220,000 compounds screened, about 770 (0.35%) were called active. This list was built around the results that the source calls inconclusive (neither active nor inactive); the mix of calls is not that of the screen. Cut-off read from the data, not from the text of the source: active = binding response below about 49% or above about 150%; inconclusive = no clear call, values can overlap the other calls; inactive = in between.
# Target: Guanine nucleotide-binding protein G(o) subunit alpha (Homo sapiens) (UniProt P09471)
# Test: RGS7-Galphao binding modulators, primary screen, biochemical, multiplexed bead flow cytometry (AID 1439);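 note: fluorescent Galphao held in activated GDP-AlF4 state binding bead-coupled RGS7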
# Settings: at 10 µM, actives lie on both sides
row,SMILES,binding response (% of control)
1,COc1ccc(CCNC(=O)C(=O)N2CCCC2)cc1OC,inactive: 99.6%
2,CC1(C)CN(c2ccsc2C(=O)O)C1=O,inconclusive: 128%
3,Cc1ccc(CNCC(=O)Nc2ccc(C)cc2Br)cc1,inconclusive: 73.5%
4,CN(C)CCCNC(=O)/C(=C\C=C\c1ccccc1)NC(=O)c1ccc([N+](=O)[O-])cc1,inconclusive: 81.1%
5,O=[N+]([O-])c1cc([N+](=O)[O-])c2cccnc2c1O,inconclusive: 77.7%
6,C/C(=N\NC(N)=S)c1cccnc1,inconclusive: 71.4%
7,CCSc1ncc(Cl)c(C(=O)Nc2cc(C)ccc2C)n1,inconclusive: 78.6%
8,COc1cc2c(C(=O)O)c(C)n(-c3ccccc3)c2c2ccccc12,inconclusive: 108%
9,O=C(Cc1c(C(=O)O)[nH]c2ccc(Cl)cc12)Nc1ccc2c(c1)OCCO2,inactive: 97.1%
10,CN1CCN(Cc2oc(CO)cc(=O)c2O)CC1,inactive: 98.5%
11,CCOc1ccc(/C=C2\SC(=O)N(c3ccc(O)cc3)C2=O)cc1OC,inconclusive: 101%
12,CC(C)(C)NC(=O)NC(=O)CN1CCN(Cc2ccccc2)CC1,inconclusive: 109%
13,COc1ccc2c(c1OC)C(=O)OC2Nc1nc(-c2ccc([N+](=O)[O-])cc2)cs1 (configuration not stated),inconclusive: 101%
14,CCC(CC)C(=O)Nc1cccc(C(=O)Nc2ccc(OC)cc2[N+](=O)[O-])c1,inactive: 92.6%
15,COc1ccc(-c2ccc(OC)c([C@H]3[C@H]4C=CC[C@@H](C)[C@@H]4C(=O)N3Cc3ccccc3)c2)cc1OC,inconclusive: 84.1%
16,Cc1ccc(-c2[nH]ncc2CNCCc2cnn(-c3ccccc3)c2)cc1C,inconclusive: 138%
17,CN1C[C@@H]2C(c3ccc(C(F)(F)F)cc3)C3(c4ccccc4)CC2(C3)[C@H]1c1ccccc1 (some centres not stated),inconclusive: 87.4%
18,CC(C)CC(NC(=O)c1ccc(Cl)cc1)C(=O)OCC(=O)c1ccc2c(c1)NC(=O)CO2 (configuration not stated),inactive: 111%
19,O=C(NCC1(N2CCCCC2)CCCCC1)c1ccc(S(=O)(=O)N2CCCC2)cc1,inconclusive: -164%
20,O=C(Nc1cccc(Cl)c1)N1N=CCC1c1ccccc1 (configuration not stated),inconclusive: 99.8%
21,O=C(Cn1cnc2ccccc21)NCc1ccccc1,inactive: 136%
22,O=C(CSc1n[nH]c(=O)[nH]c1=O)NCC1CCCCC1,inconclusive: 102%
23,O=S(=O)(c1cccc(F)c1)N1CCCN(c2ccc(C(F)(F)F)cn2)CC1,inconclusive: 148%

row,SMILES,binding response (% of control)
1,O=C(Nc1nc(-c2ccccn2)cs1)c1cccc(-n2cnnn2)c1,inconclusive: 87%
2,O=C1CCCN=C(Nc2ccc(F)c(Cl)c2)S1,inconclusive: 108%
3,O=C(NCc1ccccn1)c1nc(-c2ccc(C(F)(F)F)cc2)no1,inactive: 97%
4,O=C(/C=C/c1ccc2c(c1)OCCO2)c1ccccc1,inconclusive: 74.3%
5,O=C1CN(C(=O)c2ccc(Cl)nc2)c2ccccc2N1,inconclusive: 93.5%
6,CCN(C(=O)COC(=O)c1ccc(Cl)c(N)c1)C1CCS(=O)(=O)C1 (configuration not stated),inactive: 110%
7,CCOC(=O)C1C(=O)CC(C)(O)C(C(=O)OCC)C1c1ccc([N+](=O)[O-])cc1 (configuration not stated),inconclusive: 115%
8,CCOc1ncccc1C(=O)OCC(=O)N1CCc2ccccc21,inconclusive: 78.6%
9,Cc1nc(-c2ccccn2)nc(SCC(=O)c2ccccc2)c1Cl,inconclusive: 106%
10,O=C1CSc2ccc(C(=O)NCC(c3ccco3)N3CCCCC3)cc2N1 (configuration not stated),inactive: 113%
11,O=c1nc(/C=C/c2ccc(O)c(O)c2)oc2ccccc12,inconclusive: 101%
12,O=C(Nc1cccc(O)c1)c1ccc([N+](=O)[O-])cc1Cl,inconclusive: 105%
13,O=[N+]([O-])c1cc(CN2CCOCC2)c2cccnc2c1O,inconclusive: 106%
14,COc1ccc(NC(=S)Nc2cccc(C(F)(F)F)c2)c(C)c1,inactive: 85.7%
15,Cc1nccn1CC(=O)N/N=C/c1c[nH]c2ccccc12,inconclusive: 85.7%
16,O=C(N/N=C/c1cccs1)C(O)c1ccccc1 (configuration not stated),inconclusive: 120%
17,O=c1c2ccccc2nc(CSc2ncnc3nc[nH]c23)n1-c1cccc(C(F)(F)F)c1,inactive: 96.1%
18,Cc1cccc2cc(C#N)c(SCC#N)nc12,inconclusive: 87.1%
19,Cc1ccc(/C=c2/sc3nnc(-c4ccccc4Cl)n3c2=O)o1,inactive: 101%
20,NC(=O)CC(NC(=O)c1cccc(Br)c1)c1ccc(NCCN2CCOCC2)c([N+](=O)[O-])c1 (configuration not stated),inconclusive: 107%
21,O=C(NCCSCc1ccco1)Nc1cc(Cl)cc(Cl)c1,inconclusive: 86.3%
22,CCOc1cccc2cc(C(N)=O)c(=N)oc12,inconclusive: 292%
23,Cc1onc(-c2c(Cl)cccc2Cl)c1NC(=O)N1CCSCC1,inconclusive: 185%

row,SMILES,binding response (% of control)
1,COc1ccccc1NC(=O)C(=O)/C=C(\O)c1ccccc1,inconclusive: 94.5%
2,COCCNC(=S)NNc1ccc(Cl)c(C(=O)O)c1,inconclusive: 189%
3,Cc1ccc(C)c(N2CCN(C(=O)CN3C(=S)NC(C)(C)CC3C)CC2)c1 (configuration not stated),inconclusive: 97.4%
4,N/C(=N\OC(=O)c1ccco1)c1ccc(Cl)cc1,active: 164% [activator]
5,Cc1ccc(O)c(C(=O)c2cnn(C(=O)COc3ccccc3C#N)c2)c1,inconclusive: 129%
6,CC1(C)C2CC=C(/C=N/NC(=O)C(N)=O)C1C2 (configuration not stated),inconclusive: 31.4%
7,C=C(C)C(=O)OC1(C(F)(F)F)Oc2cc(C)ccc2NC1=O (configuration not stated),inactive: 94.5%
8,O=C(NC(=S)Nc1ccc2c(c1)OCCO2)c1ccco1,inconclusive: 96.8%
9,N#Cc1ccc(S(=O)(=O)N2CCCN(c3ccc(C(F)(F)F)cn3)CC2)cc1,inconclusive: 165%
10,Cc1ccc(C2=NN3C(=O)c4ccccc4C3C2)cc1 (configuration not stated),inconclusive: 223%
11,O=C(Nc1cccc(S(=O)(=O)N2CCCCC2)c1)c1ccc([N+](=O)[O-])o1,inconclusive: 94.5%
12,O=C(O)c1cc(C(F)(F)F)nc2c(C(F)(F)F)cccc12,active: 174% [activator]
13,C=CCN1c2ccccc2[C@]23C[C@@H](C(=O)OC)N(C(=O)c4ccco4)C2=NC(C(=O)OC)=C(C(=O)OC)[C@H]13,inconclusive: 92.7%
14,Cc1nnsc1-c1onc(C)c1C(=O)Nc1cc(Cl)cc(Cl)c1,inconclusive: 92.3%
15,CC(C)C(NS(=O)(=O)c1cccc(C(F)(F)F)c1)C(=O)O (configuration not stated),inconclusive: 182%
16,C/C(=N\OCc1ccc(C#N)cc1)c1cc2ccccc2o1,inconclusive: 154%
17,C/C(Cn1cnc([N+](=O)[O-])n1)=N\NC(=O)c1ccc(O)cc1O,inactive: 101%
18,COc1nccc(C(F)(F)F)c1C(=O)Nc1ccc(Cl)cc1,inconclusive: 87.1%
19,Cc1ccc(NC(=O)COC(=O)C2CC(=O)N(Cc3ccccc3)C2)cc1F (configuration not stated),inactive: 100%
20,Cc1[nH]c2ccccc2c1/C=N/NC(=O)c1cc(C(C)C)[nH]n1,inconclusive: 136%
21,O=C(Nc1cccc(Cl)c1)Nc1sccc1-c1nc2ccccc2s1,inconclusive: 104%
22,O=C(O)C1CCCCC1C(=O)Nc1ccc(Cl)cc1Cl (configuration not stated),inactive: 91%
23,CC12CCC(c3n[nH]c(=S)nc31)C2(C)C (configuration not stated),inactive: 99.1%

row,SMILES,binding response (% of control)
1,CCOC(=O)c1sc(NC(=O)CSc2nncn2C)nc1C,inconclusive: 124%
2,COc1ccc(C(=O)N/C=C/n2cnc3cc(C(F)(F)F)ccc32)cc1,inconclusive: 119%
3,Cc1cc(/C=C2\C(=N)N3N=C(CC(=O)N4CCOCC4)SC3=NC2=O)c(C)n1Cc1ccccc1,inconclusive: 101%
4,CC[C@H](CO)NCCN[C@H](CC)CO,inactive: 100%
5,CC(=O)Oc1ccc(/C=C2/CCc3ccccc3C2=O)cc1,inconclusive: -261%
6,Cc1cccc(OCc2nnc(SCC(=O)Nc3nccs3)o2)c1,inconclusive: 112%
7,Cc1c(NC(=S)N/N=C/c2ccc([N+](=O)[O-])cc2O)c(=O)n(-c2ccccc2)n1C,inconclusive: 94.9%
8,O=c1c2ccccc2ncn1CCOCCOc1ccc([N+](=O)[O-])cc1,inconclusive: 104%
9,Cc1ccc(C(C)C)c(OCC(=O)N/N=C/c2ccc(S(=O)(=O)O)o2)c1,inconclusive: 110%
10,CCc1ccc(Nc2nnc(SCC(=O)Nc3ccc(C(=O)O)cc3)s2)cc1,inconclusive: 99%
11,COc1ccc(-c2noc(-c3ccc(Br)o3)n2)cc1,inconclusive: -218%
12,C=CCN1C(=O)S/C(=C/c2ccsc2)C1=O,inactive: 106%
13,CC(C)N(C(=O)COC(=O)c1cncc(Br)c1)C(C)C,inconclusive: 103%
14,COc1ccc(NC(=S)N2CCCCC2c2cccnc2)cc1 (configuration not stated),inconclusive: 133%
15,CN(C)c1nc2ccccc2n(C)c1=O,inconclusive: 87.3%
16,CCSc1nnc(NC(=O)C(C)(C(F)(F)F)C(F)(F)F)s1,inactive: 109%
17,CN(C)S(=O)(=O)c1cccc(NC(=O)CSc2ncnc3ccccc23)c1,inconclusive: 291%
18,CN(C)CCNC(=O)c1c(CSc2ccccc2)noc1C(=O)NCc1ccccc1,inconclusive: 108%
19,COc1cccc(NC(=S)Nc2cc(C)cc(C)n2)c1,inconclusive: 84.7%
20,Cc1cc(Br)ccc1SCC(=O)OCC(=O)c1c(N)n(C)c(=O)n(C)c1=O,inconclusive: 239%
21,CC(C)(CO)NC(=O)C12CC3CC(CC(Br)(C3)C1)C2,inconclusive: 137%
22,COc1cccc2[nH]c3c(N4CCc5ccccc5C4)ncnc3c12,inconclusive: 132%
23,CC(=O)Oc1ccc(C(=O)O)c(OC(C)=O)c1,inconclusive: 59.6%

# Six successive compounds out of the list so far, for reference:
row,SMILES,binding response (% of control)
12,C=CCN1C(=O)S/C(=C/c2ccsc2)C1=O,inactive: 106%
13,CC(C)N(C(=O)COC(=O)c1cncc(Br)c1)C(C)C,inconclusive: 103%
14,COc1ccc(NC(=S)N2CCCCC2c2cccnc2)cc1 (configuration not stated),inconclusive: 133%
15,CN(C)c1nc2ccccc2n(C)c1=O,inconclusive: 87.3%
16,CCSc1nnc(NC(=O)C(C)(C(F)(F)F)C(F)(F)F)s1,inactive: 109%
17,CN(C)S(=O)(=O)c1cccc(NC(=O)CSc2ncnc3ccccc23)c1,inconclusive: 291%

# Quoted at random: 2 records from the list, in no set order.
row,SMILES,binding response (% of control)
2,COCCNC(=S)NNc1ccc(Cl)c(C(=O)O)c1,inconclusive: 189%
23,CC12CCC(c3n[nH]c(=S)nc31)C2(C)C (configuration not stated),inactive: 99.1%
